Measurements reported in the supplement of paper PMC10849652.
The list shows a part of the results.

The chains behind the UniProt entries cited, without tags or fusion partners. Where a name states a change or a piece, a line headed by the entry shows the natural chain unless it says otherwise.
UniProt Q969X1: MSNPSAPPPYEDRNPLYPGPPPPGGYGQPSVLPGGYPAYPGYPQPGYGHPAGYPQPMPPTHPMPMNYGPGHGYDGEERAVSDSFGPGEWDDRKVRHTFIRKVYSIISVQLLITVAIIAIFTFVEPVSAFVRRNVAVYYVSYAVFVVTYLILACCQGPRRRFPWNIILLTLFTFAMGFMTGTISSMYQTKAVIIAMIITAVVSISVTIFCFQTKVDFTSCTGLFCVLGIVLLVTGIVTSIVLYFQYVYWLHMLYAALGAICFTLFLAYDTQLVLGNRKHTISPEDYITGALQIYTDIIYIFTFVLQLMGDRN
UniProt P19438, whole entry, looked up: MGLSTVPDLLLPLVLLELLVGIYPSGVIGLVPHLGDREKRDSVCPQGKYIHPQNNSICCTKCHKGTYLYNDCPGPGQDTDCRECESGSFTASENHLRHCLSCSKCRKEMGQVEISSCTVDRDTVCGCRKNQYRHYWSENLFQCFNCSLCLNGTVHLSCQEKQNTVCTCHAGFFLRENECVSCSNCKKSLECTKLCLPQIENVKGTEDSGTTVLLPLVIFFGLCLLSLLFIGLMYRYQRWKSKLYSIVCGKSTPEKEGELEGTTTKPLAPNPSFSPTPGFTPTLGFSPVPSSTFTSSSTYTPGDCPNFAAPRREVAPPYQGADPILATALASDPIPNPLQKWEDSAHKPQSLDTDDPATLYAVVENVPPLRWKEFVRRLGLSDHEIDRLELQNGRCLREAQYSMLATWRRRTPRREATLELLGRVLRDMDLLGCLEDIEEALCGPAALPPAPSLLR
UniProt Q9Y2Y6: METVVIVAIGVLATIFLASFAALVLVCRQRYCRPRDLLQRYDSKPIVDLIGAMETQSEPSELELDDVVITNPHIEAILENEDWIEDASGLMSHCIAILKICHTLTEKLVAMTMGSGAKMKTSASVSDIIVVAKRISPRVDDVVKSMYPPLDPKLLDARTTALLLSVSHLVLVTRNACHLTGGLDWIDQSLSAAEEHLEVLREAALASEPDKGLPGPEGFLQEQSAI
UniProt Q9Y519: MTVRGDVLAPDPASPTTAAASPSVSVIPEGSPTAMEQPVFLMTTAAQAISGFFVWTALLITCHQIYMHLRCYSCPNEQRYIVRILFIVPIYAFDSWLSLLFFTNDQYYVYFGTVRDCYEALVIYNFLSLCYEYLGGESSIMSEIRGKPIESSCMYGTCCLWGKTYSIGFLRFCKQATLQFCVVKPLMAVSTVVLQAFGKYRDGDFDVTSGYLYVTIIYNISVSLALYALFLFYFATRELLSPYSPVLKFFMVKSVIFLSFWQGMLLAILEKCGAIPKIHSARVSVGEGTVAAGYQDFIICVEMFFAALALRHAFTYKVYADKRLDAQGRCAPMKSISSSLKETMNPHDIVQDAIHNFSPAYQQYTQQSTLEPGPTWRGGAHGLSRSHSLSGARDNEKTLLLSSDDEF
UniProt Q08117: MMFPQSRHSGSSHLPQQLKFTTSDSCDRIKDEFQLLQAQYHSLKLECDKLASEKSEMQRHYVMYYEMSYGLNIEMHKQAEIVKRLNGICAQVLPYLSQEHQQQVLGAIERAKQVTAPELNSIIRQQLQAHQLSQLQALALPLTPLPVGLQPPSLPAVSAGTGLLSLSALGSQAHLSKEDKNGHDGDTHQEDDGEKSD
UniProt Q86XT9, whole entry, looked up: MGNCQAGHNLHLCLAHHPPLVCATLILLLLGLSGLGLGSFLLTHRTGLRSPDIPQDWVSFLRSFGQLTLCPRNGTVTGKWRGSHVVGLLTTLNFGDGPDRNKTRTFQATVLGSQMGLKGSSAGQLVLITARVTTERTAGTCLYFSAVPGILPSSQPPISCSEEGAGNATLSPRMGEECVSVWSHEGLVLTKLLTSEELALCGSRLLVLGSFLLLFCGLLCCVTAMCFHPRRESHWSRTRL
UniProt Q9BVK8: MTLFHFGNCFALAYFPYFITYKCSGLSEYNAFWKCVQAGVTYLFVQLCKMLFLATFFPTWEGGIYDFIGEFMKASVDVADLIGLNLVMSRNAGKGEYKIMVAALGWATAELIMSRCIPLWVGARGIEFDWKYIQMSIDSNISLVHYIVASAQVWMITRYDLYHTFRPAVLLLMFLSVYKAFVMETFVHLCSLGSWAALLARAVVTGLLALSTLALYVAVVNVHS
UniProt Q9BVT8: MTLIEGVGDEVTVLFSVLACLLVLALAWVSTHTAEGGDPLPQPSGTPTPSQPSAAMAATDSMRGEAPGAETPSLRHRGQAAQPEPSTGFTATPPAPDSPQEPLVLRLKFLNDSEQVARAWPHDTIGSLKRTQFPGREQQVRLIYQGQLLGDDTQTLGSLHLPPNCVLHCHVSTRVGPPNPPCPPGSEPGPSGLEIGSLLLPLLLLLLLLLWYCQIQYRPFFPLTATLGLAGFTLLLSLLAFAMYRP
UniProt Q9BVX2: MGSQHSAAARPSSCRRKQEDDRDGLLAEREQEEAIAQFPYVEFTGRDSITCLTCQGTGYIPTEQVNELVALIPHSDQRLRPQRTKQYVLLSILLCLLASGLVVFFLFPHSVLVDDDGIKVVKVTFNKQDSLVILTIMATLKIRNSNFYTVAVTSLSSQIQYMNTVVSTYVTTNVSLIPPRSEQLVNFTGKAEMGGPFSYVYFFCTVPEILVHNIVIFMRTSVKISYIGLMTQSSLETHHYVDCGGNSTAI
UniProt Q9NWH2: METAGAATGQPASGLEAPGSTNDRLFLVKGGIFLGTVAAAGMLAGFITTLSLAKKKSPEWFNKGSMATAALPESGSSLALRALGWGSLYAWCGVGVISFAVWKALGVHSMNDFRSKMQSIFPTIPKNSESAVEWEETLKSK
UniProt Q8N131: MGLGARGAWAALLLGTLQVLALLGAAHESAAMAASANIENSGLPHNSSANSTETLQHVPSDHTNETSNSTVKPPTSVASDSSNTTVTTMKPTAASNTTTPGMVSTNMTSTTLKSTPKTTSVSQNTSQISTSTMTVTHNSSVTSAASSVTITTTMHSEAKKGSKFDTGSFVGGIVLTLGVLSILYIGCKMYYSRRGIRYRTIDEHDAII
UniProt O76062: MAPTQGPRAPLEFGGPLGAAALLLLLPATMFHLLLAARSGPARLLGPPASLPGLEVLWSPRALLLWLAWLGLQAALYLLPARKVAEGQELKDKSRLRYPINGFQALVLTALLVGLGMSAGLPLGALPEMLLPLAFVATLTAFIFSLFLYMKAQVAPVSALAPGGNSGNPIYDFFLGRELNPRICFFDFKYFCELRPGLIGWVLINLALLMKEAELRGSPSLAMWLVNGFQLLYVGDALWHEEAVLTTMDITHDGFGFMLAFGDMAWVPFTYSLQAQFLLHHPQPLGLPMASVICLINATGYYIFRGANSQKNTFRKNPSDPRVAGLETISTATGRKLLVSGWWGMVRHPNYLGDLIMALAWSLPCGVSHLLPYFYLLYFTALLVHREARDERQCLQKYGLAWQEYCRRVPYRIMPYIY
UniProt O00206, whole entry, looked up: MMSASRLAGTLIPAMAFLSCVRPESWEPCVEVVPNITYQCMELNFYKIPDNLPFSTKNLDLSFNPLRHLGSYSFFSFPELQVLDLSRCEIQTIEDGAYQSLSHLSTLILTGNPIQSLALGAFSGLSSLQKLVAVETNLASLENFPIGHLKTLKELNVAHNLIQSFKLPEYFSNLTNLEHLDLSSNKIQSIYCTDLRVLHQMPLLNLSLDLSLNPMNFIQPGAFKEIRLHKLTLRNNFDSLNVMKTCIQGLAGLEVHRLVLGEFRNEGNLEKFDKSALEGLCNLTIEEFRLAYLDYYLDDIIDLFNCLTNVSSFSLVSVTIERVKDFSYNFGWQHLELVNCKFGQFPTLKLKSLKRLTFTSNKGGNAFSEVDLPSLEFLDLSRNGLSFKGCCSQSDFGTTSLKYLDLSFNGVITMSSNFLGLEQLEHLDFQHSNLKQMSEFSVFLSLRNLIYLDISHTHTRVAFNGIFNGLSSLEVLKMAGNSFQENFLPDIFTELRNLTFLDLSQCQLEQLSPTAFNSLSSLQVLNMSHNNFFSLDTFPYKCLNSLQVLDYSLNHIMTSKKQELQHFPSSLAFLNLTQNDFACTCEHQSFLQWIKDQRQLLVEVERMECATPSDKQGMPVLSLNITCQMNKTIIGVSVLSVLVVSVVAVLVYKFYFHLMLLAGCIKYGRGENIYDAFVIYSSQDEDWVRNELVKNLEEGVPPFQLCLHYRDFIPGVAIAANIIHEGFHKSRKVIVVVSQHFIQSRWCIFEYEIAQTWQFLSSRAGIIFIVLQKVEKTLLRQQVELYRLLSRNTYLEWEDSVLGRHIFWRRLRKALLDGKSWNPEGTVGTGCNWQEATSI
UniProt Q5SNT2: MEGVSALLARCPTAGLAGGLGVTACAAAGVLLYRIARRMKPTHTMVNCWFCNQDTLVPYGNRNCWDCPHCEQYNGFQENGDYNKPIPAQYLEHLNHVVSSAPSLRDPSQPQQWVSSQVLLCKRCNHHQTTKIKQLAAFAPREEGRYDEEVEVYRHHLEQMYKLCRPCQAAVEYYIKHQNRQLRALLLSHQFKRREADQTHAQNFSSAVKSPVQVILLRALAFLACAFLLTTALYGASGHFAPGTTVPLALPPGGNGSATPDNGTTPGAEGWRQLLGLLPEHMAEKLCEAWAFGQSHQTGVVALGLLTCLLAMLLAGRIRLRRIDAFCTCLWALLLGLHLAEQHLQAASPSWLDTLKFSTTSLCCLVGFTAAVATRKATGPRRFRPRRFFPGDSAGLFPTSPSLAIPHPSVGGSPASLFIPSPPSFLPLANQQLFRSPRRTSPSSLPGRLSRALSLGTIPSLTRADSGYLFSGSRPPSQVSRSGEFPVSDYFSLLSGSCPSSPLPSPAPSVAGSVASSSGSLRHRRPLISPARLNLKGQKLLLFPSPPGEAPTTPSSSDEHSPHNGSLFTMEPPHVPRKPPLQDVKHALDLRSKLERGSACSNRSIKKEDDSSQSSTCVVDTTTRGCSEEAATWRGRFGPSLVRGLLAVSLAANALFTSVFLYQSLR
UniProt Q8NCS4: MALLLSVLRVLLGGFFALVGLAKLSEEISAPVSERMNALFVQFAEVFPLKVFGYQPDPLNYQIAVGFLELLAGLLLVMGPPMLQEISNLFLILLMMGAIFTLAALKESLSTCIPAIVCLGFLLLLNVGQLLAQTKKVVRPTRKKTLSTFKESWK
UniProt Q03169: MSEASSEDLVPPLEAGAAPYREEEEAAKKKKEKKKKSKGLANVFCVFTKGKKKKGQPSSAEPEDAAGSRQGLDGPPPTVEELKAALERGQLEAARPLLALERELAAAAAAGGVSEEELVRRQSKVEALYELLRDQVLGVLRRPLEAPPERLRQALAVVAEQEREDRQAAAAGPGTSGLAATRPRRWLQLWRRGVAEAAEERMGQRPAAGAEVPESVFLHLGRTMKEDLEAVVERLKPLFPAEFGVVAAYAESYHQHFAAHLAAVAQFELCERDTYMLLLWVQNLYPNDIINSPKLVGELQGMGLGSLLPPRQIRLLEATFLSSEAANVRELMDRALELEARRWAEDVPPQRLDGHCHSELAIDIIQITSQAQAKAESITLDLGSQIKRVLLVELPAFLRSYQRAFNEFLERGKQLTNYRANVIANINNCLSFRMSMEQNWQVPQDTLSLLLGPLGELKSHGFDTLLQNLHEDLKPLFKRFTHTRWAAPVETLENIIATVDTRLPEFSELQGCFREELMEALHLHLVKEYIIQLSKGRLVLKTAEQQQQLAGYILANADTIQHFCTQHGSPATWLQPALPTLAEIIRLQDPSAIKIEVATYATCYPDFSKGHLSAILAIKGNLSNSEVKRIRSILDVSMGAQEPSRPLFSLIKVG
UniProt Q9BSE2: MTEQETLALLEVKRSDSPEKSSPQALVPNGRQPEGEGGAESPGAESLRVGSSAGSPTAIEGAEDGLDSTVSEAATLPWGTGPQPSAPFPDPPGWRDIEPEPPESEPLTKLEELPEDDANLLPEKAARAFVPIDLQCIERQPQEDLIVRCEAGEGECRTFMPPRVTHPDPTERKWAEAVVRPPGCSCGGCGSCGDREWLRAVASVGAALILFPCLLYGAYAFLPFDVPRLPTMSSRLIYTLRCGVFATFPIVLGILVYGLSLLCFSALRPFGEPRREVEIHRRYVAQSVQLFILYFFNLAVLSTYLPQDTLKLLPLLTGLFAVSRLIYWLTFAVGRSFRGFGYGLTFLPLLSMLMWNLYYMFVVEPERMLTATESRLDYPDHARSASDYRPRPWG
UniProt Q2T9K0: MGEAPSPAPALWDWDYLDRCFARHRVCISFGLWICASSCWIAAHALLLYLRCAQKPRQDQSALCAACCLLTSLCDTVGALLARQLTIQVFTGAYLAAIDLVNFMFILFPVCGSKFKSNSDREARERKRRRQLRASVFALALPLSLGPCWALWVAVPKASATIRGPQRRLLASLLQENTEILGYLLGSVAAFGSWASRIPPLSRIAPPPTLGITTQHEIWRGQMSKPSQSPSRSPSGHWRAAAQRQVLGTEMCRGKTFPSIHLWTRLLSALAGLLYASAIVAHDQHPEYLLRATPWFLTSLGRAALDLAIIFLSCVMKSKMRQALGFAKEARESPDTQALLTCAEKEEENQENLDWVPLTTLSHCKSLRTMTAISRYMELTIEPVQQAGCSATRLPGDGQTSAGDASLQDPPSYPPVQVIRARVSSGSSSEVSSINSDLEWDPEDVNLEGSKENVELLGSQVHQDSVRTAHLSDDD

Compound: COc1cc2nc(-c3cc(F)ccc3O)nc(N[C@@H]3CNC[C@H]3C(C)(C)O)c2cc1OC
Test: log2 fold change, soluble protein after heating vs DMSO (PISA); higher = thermal stabilisation; K562 cells, 10 uM, 30 min; active = over 0.2 and 3.5 SD of the protein, either way, in both replicates (recomputed)
Summary of the method: (§1)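 Quantification of soluble protein used TMTpro 16plex LC-MS/MS, with channel sums equalised. Samples were the supernatant after 21,000xg for 90 min of pooled aliquots from K562 cells (2×10^6 cells/mL) treated with 10 μM compound for 30 min, heated for 3 min over 48°C-58°C, and extracted in PBS with 0.5% NP-40 at 4°C. Values, from duplicates, describe thermal stability against control samples on a log2 fold-change scale.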

log2 fold change, inactive:
TMBIM1 (UniProt Q969X1) -0.254
TNFRSF1A (UniProt P19438) 0.004
TMEM129 -0.071
TMEM98 (UniProt Q9Y2Y6) 0.003
TMEM184B (UniProt Q9Y519) 0.058
TLE5 isoform 2 (UniProt Q08117) -0.058
TMEM219 (UniProt Q86XT9) -0.011
TMEM147 (UniProt Q9BVK8) 0.059
TMUB1 (UniProt Q9BVT8) 0.052
TMEM268 isoform 3 (UniProt Q5VZI3) -0.25
TMEM106C (UniProt Q9BVX2) -0.01
TMEM242 (UniProt Q9NWH2) -0.034
TMEM123 (UniProt Q8N131) 0.059
TM7SF2 (UniProt O76062) -0.143
TMEM175 (UniProt Q9BSA9) 0.044
TLR4 (UniProt O00206) 0.266
TMEM8A (UniProt Q9HCN3) -0.008

Compound: COc1cc2ncnc(Nc3ccc(F)c(Cl)c3)c2cc1OCCCN1CCOCC1 [gefitinib]
Test: as above
Summary of the method: as §1

log2 fold change, inactive:
TMBIM1 (UniProt Q969X1) -0.004
TMEM273 isoform 2 (UniProt Q5T292) 0.018
TMEM201 (UniProt Q5SNT2) 0.088
TMEM129 0.316
TMEM98 (UniProt Q9Y2Y6) 0.126
TMEM184B (UniProt Q9Y519) -0.034
TMCC2 (UniProt O75069) 0.129
TLE5 isoform 2 (UniProt Q08117) -0.076
TMEM219 (UniProt Q86XT9) -0.029
TMEM35B (UniProt Q8NCS4) -0.049
TMEM147 (UniProt Q9BVK8) 0.096
TMUB1 (UniProt Q9BVT8) 0.121
TNFAIP2 (UniProt Q03169) -0.006
TMEM268 isoform 3 (UniProt Q5VZI3) -0.079
TMEM159 isoform 2 (UniProt Q96B96) -0.111
TMEM79 (UniProt Q9BSE2) 0.075
TMEM106C (UniProt Q9BVX2) -0.358
TMCC3 (UniProt Q9ULS5) 0.033
TMEM242 (UniProt Q9NWH2) -0.089
TMEM44 (UniProt Q2T9K0) -0.349
TLR9 isoform 4 (UniProt Q9NR96) -0.068
TMEM123 (UniProt Q8N131) 0.023
TM7SF2 (UniProt O76062) 0.059
TMEM127 (UniProt O75204) -0.081
TMEM8A (UniProt Q9HCN3) -0.038
